Source: article doi:10.1101/2023.10.26.564242
No constants are given. Whether binding was seen depends on the method and setting. Some results given as binding are weak or reduced against the parent protein; the word gives no strength. Sequences can lack the tags named with a protein.

Key:
[1] = molecular target: T1, FHF containing HOOK3 residues 451-718 (human) (UniProt Q9H8T0+Q86VS8+Q8N612); assay: SEC
[2] = molecular target: T1, FHF containing HOOK3 residues 451-718 (human); assay: cryo-EM structure
[3] = molecular target: T2, FHF complex with HOOK3 residues 571-718 (FTS, HOOK3 571-718, FHIP1B) (human) (UniProt Q9H8T0+Q86VS8+Q8N612); assay: cross-linking
T2 sequence 1: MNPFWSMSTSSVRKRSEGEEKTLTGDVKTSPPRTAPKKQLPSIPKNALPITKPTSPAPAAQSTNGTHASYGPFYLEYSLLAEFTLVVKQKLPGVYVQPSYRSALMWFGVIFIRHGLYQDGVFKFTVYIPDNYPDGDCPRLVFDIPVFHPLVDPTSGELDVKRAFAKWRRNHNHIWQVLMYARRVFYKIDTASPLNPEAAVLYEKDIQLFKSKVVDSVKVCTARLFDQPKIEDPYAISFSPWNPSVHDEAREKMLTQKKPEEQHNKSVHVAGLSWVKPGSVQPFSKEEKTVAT
T2 sequence 2: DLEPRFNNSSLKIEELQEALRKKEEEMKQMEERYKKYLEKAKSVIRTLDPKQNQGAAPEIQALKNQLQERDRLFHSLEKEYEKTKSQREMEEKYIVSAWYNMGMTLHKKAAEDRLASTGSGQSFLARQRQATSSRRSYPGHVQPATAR
T2 sequence 3: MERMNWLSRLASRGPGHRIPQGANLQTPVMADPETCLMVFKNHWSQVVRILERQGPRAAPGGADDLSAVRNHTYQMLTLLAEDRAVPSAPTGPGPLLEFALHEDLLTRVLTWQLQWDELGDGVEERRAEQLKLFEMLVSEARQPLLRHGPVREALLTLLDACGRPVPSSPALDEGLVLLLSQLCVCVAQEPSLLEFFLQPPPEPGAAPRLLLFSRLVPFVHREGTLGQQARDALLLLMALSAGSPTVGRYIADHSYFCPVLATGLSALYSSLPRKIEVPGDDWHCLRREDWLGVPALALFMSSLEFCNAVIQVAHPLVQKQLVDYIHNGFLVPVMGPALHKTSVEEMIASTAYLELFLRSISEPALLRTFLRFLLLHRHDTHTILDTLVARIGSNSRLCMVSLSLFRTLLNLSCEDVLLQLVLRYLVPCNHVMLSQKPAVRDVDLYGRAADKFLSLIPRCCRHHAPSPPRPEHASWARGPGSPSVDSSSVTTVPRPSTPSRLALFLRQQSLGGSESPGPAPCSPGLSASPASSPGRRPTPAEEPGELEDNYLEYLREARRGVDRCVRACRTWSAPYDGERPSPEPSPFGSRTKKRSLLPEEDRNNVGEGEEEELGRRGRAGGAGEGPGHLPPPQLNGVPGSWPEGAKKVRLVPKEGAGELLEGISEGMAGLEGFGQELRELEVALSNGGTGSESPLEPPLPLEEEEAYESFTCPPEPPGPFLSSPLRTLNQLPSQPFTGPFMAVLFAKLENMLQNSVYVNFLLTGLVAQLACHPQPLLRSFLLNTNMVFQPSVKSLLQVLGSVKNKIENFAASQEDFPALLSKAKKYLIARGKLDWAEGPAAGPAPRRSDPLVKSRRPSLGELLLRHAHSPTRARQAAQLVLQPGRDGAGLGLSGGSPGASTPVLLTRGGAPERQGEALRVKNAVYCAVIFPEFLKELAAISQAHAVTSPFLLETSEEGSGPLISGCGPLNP

[4] = molecular target: full-length FTS-HOOK3-FHIP1B (FHF) complex (human) (UniProt Q9H8T0+Q86VS8+Q8N612); assay: cross-linking

binding [1]: binds | binding [2]: binds | binding [3]: binds | binding [4]: binds
B1: GST-KIF1C stalk 674-922 (domain or fragment, UniProt O43896 674-922)
chain: SDSGDDSDKRSCEESWRLISSLREQLPPTTVQTIVKRCGLPSSGKRRAPRRVYQIPQRRRLQGKDPRWATMADLKMQAVKEICYEVALADFRHGRAEIEALAALKMRELCRTYGKPDGPGDAWRAVARDVWDTVGEEEGGGAGSGGGSEEGARGAEVEDLRAHIDKLTGILQEVKLQNSSKDRELQALRDRMLRMERVIPLAQDHEDENEEGGEVPWAPPEGSEAAEEAAPSDRMPSARPPSPPLSSWE
